Measured values from patent US20210228680A1.
No constants are given. Whether binding was seen depends on the method and setting. For some assays here: In cells and extracts the contact can be indirect. Some entries that bind do so weakly or less than the wild type.

The chains behind the UniProt entries cited, without tags or fusion partners. Residues count along the entry.
UniProt P29351: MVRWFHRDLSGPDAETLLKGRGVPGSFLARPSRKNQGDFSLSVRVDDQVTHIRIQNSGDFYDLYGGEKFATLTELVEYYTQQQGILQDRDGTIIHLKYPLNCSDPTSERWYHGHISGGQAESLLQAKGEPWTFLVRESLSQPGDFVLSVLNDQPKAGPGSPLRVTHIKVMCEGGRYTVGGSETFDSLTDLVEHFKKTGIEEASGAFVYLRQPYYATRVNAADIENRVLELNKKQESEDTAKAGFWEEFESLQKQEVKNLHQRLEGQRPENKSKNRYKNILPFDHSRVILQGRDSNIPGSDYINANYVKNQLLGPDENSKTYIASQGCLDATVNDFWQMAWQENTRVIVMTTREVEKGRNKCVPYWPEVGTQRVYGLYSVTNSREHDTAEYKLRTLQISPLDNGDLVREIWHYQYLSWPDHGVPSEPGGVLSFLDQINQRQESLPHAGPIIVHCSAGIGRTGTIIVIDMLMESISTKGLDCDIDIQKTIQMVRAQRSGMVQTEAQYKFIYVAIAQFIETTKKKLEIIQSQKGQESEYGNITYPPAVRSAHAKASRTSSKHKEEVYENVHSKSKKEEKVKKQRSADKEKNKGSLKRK
UniProt Q96LC7, residues 17-546: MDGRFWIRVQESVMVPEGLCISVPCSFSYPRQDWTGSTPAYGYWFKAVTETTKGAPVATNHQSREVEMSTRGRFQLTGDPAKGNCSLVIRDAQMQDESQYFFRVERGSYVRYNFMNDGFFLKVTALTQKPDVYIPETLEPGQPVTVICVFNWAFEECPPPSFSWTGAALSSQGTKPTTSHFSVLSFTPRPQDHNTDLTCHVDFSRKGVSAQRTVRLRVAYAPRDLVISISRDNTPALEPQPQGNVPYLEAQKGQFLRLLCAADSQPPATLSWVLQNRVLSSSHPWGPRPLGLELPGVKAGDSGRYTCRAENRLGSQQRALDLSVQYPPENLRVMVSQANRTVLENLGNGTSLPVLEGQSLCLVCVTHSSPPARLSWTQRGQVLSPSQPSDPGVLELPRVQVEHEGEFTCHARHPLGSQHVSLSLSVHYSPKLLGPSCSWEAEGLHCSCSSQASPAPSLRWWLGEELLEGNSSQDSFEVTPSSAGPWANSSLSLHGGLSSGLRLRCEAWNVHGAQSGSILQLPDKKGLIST

What was measured:
[1] = target: T1, Siglec G (mouse homologue of human Siglec 10) (mouse) (UniProt Q80ZE3); test: Co-immunoprecipitation: CD24-/- spleen cells stimulated 30 minutes with 1 µg/ml CD24Fc, control Fc or PBS; Siglec G immunoprecipitated, Western blot with anti-SHP-1
T1 sequence (looked up): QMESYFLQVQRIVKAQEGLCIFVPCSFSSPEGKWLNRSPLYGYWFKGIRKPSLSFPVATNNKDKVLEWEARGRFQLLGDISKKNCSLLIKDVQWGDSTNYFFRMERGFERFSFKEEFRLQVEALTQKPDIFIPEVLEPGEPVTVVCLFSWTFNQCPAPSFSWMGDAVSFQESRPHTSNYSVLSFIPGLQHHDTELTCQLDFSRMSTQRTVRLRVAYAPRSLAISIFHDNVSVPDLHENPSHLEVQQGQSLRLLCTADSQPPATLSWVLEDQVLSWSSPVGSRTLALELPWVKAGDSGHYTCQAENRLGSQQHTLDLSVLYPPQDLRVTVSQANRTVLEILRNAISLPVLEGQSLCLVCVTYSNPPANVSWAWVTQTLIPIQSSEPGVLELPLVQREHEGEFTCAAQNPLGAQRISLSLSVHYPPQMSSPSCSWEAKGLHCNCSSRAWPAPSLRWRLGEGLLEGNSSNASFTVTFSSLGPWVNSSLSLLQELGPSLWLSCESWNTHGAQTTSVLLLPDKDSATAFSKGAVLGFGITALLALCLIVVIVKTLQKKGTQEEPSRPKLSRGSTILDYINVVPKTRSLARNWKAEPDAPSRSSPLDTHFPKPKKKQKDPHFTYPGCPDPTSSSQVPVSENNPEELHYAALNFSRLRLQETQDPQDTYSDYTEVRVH

[2] = target: CD24Fc fusion protein (processed, secreted form) (human); test: Biacore (SPR): CD24Fc immobilised on the chip, Siglec-10Fc injected at different concentrations

Row | binding [1] | binding [2] | Substance
1 | binds | – | SHP-1 (from UniProt P29351 1-595) (enzyme)
2 | – | binds | Siglec-10Fc (from UniProt Q96LC7 17-546) (Fc fusion)
